PMC7198626
These are yes or no findings as the source states them, for the method shown. For part of these data: In cells and extracts the contact can be indirect. Some entries that bind do so weakly or less than the wild type.

Protein sequences, listed by entry. Tags and fused reporters are not part of them. Lines headed by an entry give the natural chain unless they say otherwise; changes in a name come on top. Chains listed by the source or under a name are the forms on record and can include a tag or linker.
sarcoplasmic/endoplasmic reticulum calcium-ATPase 2a (SERCA2a), Flag-tagged and HA-tagged copies (P16615-2, form named): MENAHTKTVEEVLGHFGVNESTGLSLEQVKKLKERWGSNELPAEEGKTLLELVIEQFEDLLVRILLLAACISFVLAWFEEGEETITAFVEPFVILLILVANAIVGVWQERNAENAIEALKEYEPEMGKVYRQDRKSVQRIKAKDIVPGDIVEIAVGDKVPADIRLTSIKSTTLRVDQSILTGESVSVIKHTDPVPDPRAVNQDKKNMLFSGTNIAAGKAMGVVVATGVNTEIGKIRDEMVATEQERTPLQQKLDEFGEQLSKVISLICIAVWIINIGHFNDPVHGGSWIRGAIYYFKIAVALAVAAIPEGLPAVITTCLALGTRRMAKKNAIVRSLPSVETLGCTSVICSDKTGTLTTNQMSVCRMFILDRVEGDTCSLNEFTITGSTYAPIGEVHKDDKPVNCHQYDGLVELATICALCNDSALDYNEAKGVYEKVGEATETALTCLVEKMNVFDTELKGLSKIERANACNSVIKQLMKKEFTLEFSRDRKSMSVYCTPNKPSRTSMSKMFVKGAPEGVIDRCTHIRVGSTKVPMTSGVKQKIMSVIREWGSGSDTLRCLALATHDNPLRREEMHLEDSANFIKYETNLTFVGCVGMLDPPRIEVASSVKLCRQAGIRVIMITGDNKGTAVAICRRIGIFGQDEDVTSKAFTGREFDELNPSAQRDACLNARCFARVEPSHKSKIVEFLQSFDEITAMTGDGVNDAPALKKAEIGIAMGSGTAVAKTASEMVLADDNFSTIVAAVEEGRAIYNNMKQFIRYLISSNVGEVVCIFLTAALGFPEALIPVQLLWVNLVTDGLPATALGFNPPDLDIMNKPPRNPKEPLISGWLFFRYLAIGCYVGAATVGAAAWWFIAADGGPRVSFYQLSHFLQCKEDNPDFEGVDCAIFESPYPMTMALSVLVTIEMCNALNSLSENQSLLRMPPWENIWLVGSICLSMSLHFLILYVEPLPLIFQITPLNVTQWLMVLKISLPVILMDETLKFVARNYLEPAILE

Assays:
[1] = molecular target: sarcoplasmic/endoplasmic reticulum calcium-ATPase 2a (SERCA2a), ECFP- and EYFP-fused copies (human) (UniProt P16615); experiment: FRET or BRET; ECFP-SERCA2a and EYFP-SERCA2a (1:1 molar ratio) in HEK293 cells together with empty vector, HA-SPEG WT, SPEG D3098A or SPEG 3A; sensitized emission FRET on a Leica SP5 confocal microscope
[2] = molecular target: sarcoplasmic/endoplasmic reticulum calcium-ATPase 2a (SERCA2a), Flag-tagged and HA-tagged copies (human) (UniProt P16615); experiment: co-IP; HA-SERCA2a co-expressed with Flag-SERCA2a in HEK293 cells together with GFP, GFP-SPEG WT, SPEG D3098A or SPEG 3A; Flag-SERCA2a immunoprecipitated, HA-SERCA2a detected by immunoblotting
[3] = molecular target: sarcoplasmic/endoplasmic reticulum calcium-ATPase 2a (SERCA2a), Flag-tagged and HA-tagged copies (human) (UniProt P16615); experiment: western blot of high molecular weight (oligomeric) species; Flag-SERCA2a co-expressed with GFP or GFP-SPEG WT or mutant proteins in HEK293 cells; high molecular weight SERCA2a detected by western blot and quantified

| binding [2] | binding [3] | Substance | binding [1] |
| --- | --- | --- | --- |
|  |  | sarcoplasmic/endoplasmic reticulum calcium-ATPase 2a (SERCA2a), ECFP- and EYFP-fused copies (from UniProt P16615-2 1-997) (enzyme) | binds |
| binds | binds | sarcoplasmic/endoplasmic reticulum calcium-ATPase 2a (SERCA2a), Flag-tagged and HA-tagged copies (from UniProt P16615-2 1-997) (enzyme) |  |
